{
  "sequences": {"note": "Sequences of proteins named here, by UniProt entry; tags and fusion partners are left off. Residues count along the entry.", "UniProt Q99683, residues 1-400": "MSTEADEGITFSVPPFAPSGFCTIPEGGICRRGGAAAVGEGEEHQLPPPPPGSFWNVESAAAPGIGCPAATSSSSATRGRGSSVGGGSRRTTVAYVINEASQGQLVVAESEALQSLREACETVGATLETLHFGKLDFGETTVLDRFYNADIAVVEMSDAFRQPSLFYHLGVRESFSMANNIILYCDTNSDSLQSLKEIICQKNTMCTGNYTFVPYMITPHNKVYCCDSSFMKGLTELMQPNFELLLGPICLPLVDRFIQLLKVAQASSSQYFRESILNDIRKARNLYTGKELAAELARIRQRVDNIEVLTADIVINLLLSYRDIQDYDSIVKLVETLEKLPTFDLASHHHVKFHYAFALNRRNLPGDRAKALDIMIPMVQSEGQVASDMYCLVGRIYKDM"},
  "source": "paper PMC6636751",
  "target": "ASK1-N (N-terminal fragment of ASK1 with the N-terminal coiled-coil domain, sequence 1-400), HA- or Flag-tagged (human) (UniProt Q99683)",
  "test": "co-IP; HEK293T transfected with combinations of ASK1-N-HA, ASK1-N-Flag, Trxlp-HA and human TRX1-HA; lysates precipitated with anti-flag antibody; blots with anti-Flag or anti-HA",
  "note": "No constants are given. Whether binding was seen depends on the method and setting. In cells and extracts the contact can be indirect. Some results given as binding are weak or reduced against the parent protein; the word gives no strength.",
  "data": [
    {"substance": "ASK1-N (N-terminal fragment of ASK1 with the N-terminal coiled-coil domain, sequence 1-400), HA- or Flag-tagged (from UniProt Q99683 1-400) (domain or fragment)", "values": [
      {"measurement": "binding", "result": "binds"}
    ]}
  ]
}
